Source: patent US20180118837A1 (Hoffmann-La Roche, published 2018)
No constants are given. Whether binding was seen depends on the method and setting. A result given as binding can be weak or reduced; the word gives no strength.

Columns and labels:
[1] = molecular target: SBP-tagged HER3-ECD (human); assay: ELISA-type assay (legend of FIG. 14)
[2] = molecular target: SBP-tagged HER3-ECD (human); assay: ELISA-type assay on plate-bound SBP-tagged HER3-ECD
[3] = molecular target: SBP-tagged HER3-ECD (human); assay: ELISA-type assay: SBP-tagged HER3-ECD on streptavidin plate, antibody titrated in the presence of 10 nM Europium-labeled Heregulin-beta, time-resolved fluorescence; the antibody promotes the binding of the ligand

- binding [1]: binds
- binding [2]: binds
- binding [3]: binds
B1: anti-HER3/HER4 antibody M-05-74 (antibody, V domains shown)
VH: QVQLQQSGAELAKPGASVKMSCKTSGYTLTDYWIHWVKQRPGQGLEWIGYINPYTGYTESNQKFKDKATLTADKSSNTAYIQLSSLTSEDSAVYYCARPYYYGDYWGQGTTLTVSS
VL: QIVLTQSPAIMSASPGERVTITCSASSSVSYMHWFQQKPGTSPKLLIYSTSNLASGVPARFSGSGSGTSYSLTISRMEAEDAATYYCQQRSSYPFTFGSGTKLEIK
notes: Murine monoclonal antibody from hybridoma (culture supernatant or purified full length); also called M-074; M-5-74
